Reference: patent US20130310309A1, “METHOD FOR TREATING DISORDERS OF THE SKIN” (S.I.S. Shulov Innovative Science Ltd., priority 2011, published 2013)
Where two headings read alike, the source gives them in different places. Part of at least one peptide drawing is inferred or uncertain, most often the ends. Non-standard residues stand in square brackets, D forms with d. Residues, ends and D or L forms follow the SMILES beside them. *: point of attachment. pGlu = O=C1CC[C@@H](C(=O)O)N1; Octanoyl = CCCCCCCC(=O)*

What was measured:
[1] = assay type: in vivo, human
vaginal herpes = test: Topical treatment of a patient with vaginal herpes; assay type: in vivo, human; conditions: 50 μg/gr cream, applied daily
[2] = assay type: in vivo, human; remark: listed apart in the source
Herpes simplex = assay type: in vivo, human
[3] = assay type: in vivo, human; remark: listed apart in the source
[4] = assay type: in vivo, human; remark: listed apart in the source
[5] = assay type: in vivo, human; conditions: for improvement over 2 weeks (patient's belief): psoriasis on the hands
[6] = Topical treatment of an unidentified sting; assay type: in vivo, human; conditions: 50 μg/gr cream, 2-3 times a day
[7] = assay type: in vivo, human; conditions: 50 μg/gr cream, 4 subjects
[8] = assay type: in vivo, human; remark: listed apart in the source
[9] = assay type: in vivo, human; conditions: for time until the wound closed completely: lesions generally require 7-10 days to heal
Varicella = test: Topical treatment of a patient with severe Varicella; assay type: in vivo, human; conditions: 50 μg/gr cream
[10] = assay type: in vivo, human; conditions: 50 μg/gr cream, sole of foot
Herpes zoster = assay type: in vivo, human; conditions: 50 μg/gr cream, topical, Herpes zoster patients
[11] = assay type: in vivo, human; conditions: 500 μg/gr cream, applied twice in 2 hours
[12] = 500 μg/gr cream, several times a day
[13] = 500 μg/gr cream each, ZEP4 and ZEP3 both applied, burn-like redness from chemical substance
[14] = 500 μg/gr cream, several times per day
[15] = 500 μg/gr cream once a day, psoriasis in the anus
[16] = 500 μg/gr cream (printed after ZEP3), applied as needed, 6 subjects
[17] = 50 μg/gr cream, 1-2 times per day over 12 days

## CCCCCCCC(=O)NCCCC[C@H](NC(=O)[C@H](Cc1c[nH]c2ccccc12)NC(=O)[C@H](CC(N)=O)NC(=O)[C@@H]1CCC(=O)N1)C(=O)O [ZEP3, pGLU-ASN-TRP-LYS-C8] ([pGlu]NWK(Octanoyl)-OH)
[1]; 50 μg/gr cream
  clinical outcome: aided in the healing of the wounds
[1]; [12]
  clinical outcome: immediate relief from the itching
  time to decrease in redness: ≤ 24 h
Vaginal herpes
  clinical outcome: the redness and swelling decreased, and the lesions healed
[2]; 50 μg/gr cream
  clinical outcome: therapeutic both for the pain and for the healing
[2]; [13]
  clinical outcome: immediate relief from the redness and itching
Herpes simplex; 50 μg/gr cream
  clinical outcome as compared to treatment with Zovirax: Rapid drying of the lesion, shrinking of swelling and swift conclusion of the outbreak as compared to treatment with Zovirax®
  time to relief in itching / stinging and skin rash: 10 to 20 min
Herpes simplex; 50 μg/gr cream, lesions on the lips and face
  number of applications that cause the lesions to disappear: 1-2 applications
Herpes simplex; 500 μg/gr cream, lips
  time until the wound disappeared: 36 h
[3]; 500 μg/gr cream, applied once about 10 minutes after the sting, other hand
  clinical outcome: the swelling shrunk and the redness decreased to an identical degree on each hand
[4]; [14]
  clinical outcome: immediate relief
[5]; [15]
  time to relief: 4 days
[5]; 500 μg/gr cream once a day
  improvement over 2 weeks (patient's belief): 20%
[5]; 500 μg/gr cream, psoriasis on the head
  time to relief: 0.00694 to 0.0139 days
[6]
  clinical outcome: relief from the itching sensation within a number of minutes
  time until the redness disappeared: 2 days
[7]
  clinical outcome: effective in closing the wounds without inflammation
[8]; 50 μg/gr cream, 3 subjects
  clinical outcome: therapeutic both for the itching and for the healing
[8]; [16]
  clinical outcome: immediate relief from the itching sensation
[9]; 50 μg/gr cream
  clinical outcome: almost immediate relief from itching and swelling
[9]; 1000 μg/gr cream
  clinical outcome: almost immediate relief from itching and pain of the wound
  time until the wound closed completely: 2 days
Varicella; entire body twice a day
  clinical outcome: decrease in the skin rash and the degree of the sore and swelling and shortening the time of recovery (healing)
  time until no sign of the disease: 10 days
Varicella; entire body twice a day for two weeks
  time to decrease in the skin rash, sore and swelling: 10 to 20 min
Varicella; initially applied to the hand
  time to improvement and relief after application to the hand: ≤ 24 h

## C[C@@H](O)[C@H](NC(=O)[C@H](Cc1c[nH]c2ccccc12)NC(=O)[C@H](CC(N)=O)NC(=O)[C@@H]1CCC(=O)N1)C(=O)O [ZEP4, pGLU-ASN-TRP-THR] ([pGlu]NWT-OH)
[10]
  clinical outcome: a reduction in the pain sensation
  time to relief: 2 to 3 min
[1]; 50 μg/gr cream
  clinical outcome: a decrease in redness and the size of the spots
[2]; 50 μg/gr cream, light burn on back of the hand
  time until the burn mark disappeared: ≤ 1 h
[2]; [13]
  clinical outcome: immediate relief from the redness and itching
Herpes zoster
  clinical outcome: reduced skin edema and an increase in the intervals between attacks
  time to improvement in the rash / relief from itching: 10 to 20 min
Herpes simplex; 50 μg/gr cream
  time to relief in itching / stinging and skin rash: 10 to 20 min
Herpes simplex; 50 μg/gr cream, lips
  time until the blisters disappeared: 24 h
Herpes simplex; 200 μg/gr cream
  clinical outcome: immediate relief; the disease did not develop further
[11]
  time to relief from itching: ≤ 10 min
[3]; 50 μg/gr cream, one application 24 hours after the sting
  clinical outcome: immediate reduction in the redness, swelling and pain
[3]; 1000 μg/gr cream, applied once about 10 minutes after the sting, one hand
  clinical outcome: the swelling shrunk and the redness decreased to an identical degree on each hand
[4]; [17]
  clinical outcome: The therapeutic effect repeated itself after each treatment
  time to ease in the itching and burning sensation: ~1 min
[4]; [14]
  clinical outcome: immediate relief
[5]; [15]
  time to relief: 4 days
[5]; 500 μg/gr cream once a day
  improvement over 2 weeks (patient's belief): 20%
[6]
  clinical outcome: relief from the itching sensation within a number of minutes
  time until the redness disappeared: 2 days
[8]; [16]
  clinical outcome: immediate relief from the itching sensation
[9]; 50 μg/gr cream
  clinical outcome: almost immediate relief from itching and swelling
[9]; 1000 μg/gr cream
  clinical outcome: almost immediate relief from itching and pain of the wound
  time until the wound closed completely: 2 days
[9]; toothpaste as vehicle, chemotherapy patient
  clinical outcome: significant improvement with most of the lesions disappearing
